Measured values published in US9139485B2, “Plant treatment agent” (UNIVERSITI PUTRA MALAYSIA, priority 2011, dated 2015).
Marks after values point to notes of the source that are not given here.

Columns and labels:
[1] = Laboratory incubation under waterlogged condition: ammonia loss by closed-dynamic air flow system, then soil pH, exchangeable ammonium and available nitrate
Description: Laboratory Evaluation of Treatments Under Waterlogged
Upon maintaining soil water at 70% field capacity using distilled water, the treatments below were evaluated: • i. Soil only (T0) • ii. 2.02 g urea (T1) • iii. 2.02 g urea+175 mL peat soil water (T2).
The quantity of urea used was based on the standard recommendation for the test crop. These materials were thoroughly mixed on a reciprocal shaker at 170 rpm for 15 minutes to ensure they were uniformly mixed.
The daily loss of NH3 from urea was measured by using a closed-dynamic air flow system method (Siva et al., 1999; Ahmed et al., 2006a; Ahmed et al., 2006b). The system consisted of an exchange chamber of 500 mL conical flask containing 250 g soil sample and 250 mL conical flask containing 75 mL of boric acid which were both stoppered and fit with an inlet/outlet. The inlet of the chamber was connected to an air pump and the outlet was connected by polyethylene tubing which contains boric acid and indicator solution to trap ammonia gas (Ahmed et al., 2006a; Ahmed et al., 2006b). Air was passed through the chamber at the rate of 3.5/L/min/chamber. This rate of air flow was maintained throughout the incubation period using a Gilmont flow meter to measure and adjust the air flow when necessary. The released ammonia captured in a trapping solution which contains 75 mL of boric acid with bromocresol green and methyl red indicator was titrated with 0.1 M HCl to estimate the amount of NH3 (g) released. The entire incubation was conducted at room temperature. The boric acid indicator which was used to capture ammonia was replaced every 24 h during incubation for 13 days, a period when ammonia loss was less than 1% (Ahmed et al., 2006a, 2006b). After 13 days of incubation, soil samples were analyzed for pH, exchangeable ammonium and available nitrate. Soil pH was determined by the method previously stated. The method of Keeney and Nelson (1982) was used to extract soil exchangeable ammonium and available nitrate followed by steam distillation. […]

[2] = Laboratory incubation under non-waterlogged condition: ammonia loss by closed-dynamic air flow system, then soil pH, exchangeable ammonium and available nitrate
Description: Laboratory Evaluation of Treatments Under Non-waterlogged
The same set of treatments were prepared and mixed as previously outlined except that the liquid of the treatments were used to obtain field capacity of 70%.
The daily loss of NH3 from urea was measured by using a closed-dynamic air flow system method (Siva et al., 1999; Ahmed et al., 2006a; Ahmed et al., 2006b). The system consisted of an exchange chamber of 500 mL conical flask containing 250 g soil sample and 250 mL conical flask containing 75 mL of boric acid which were both stoppered and fit with an inlet/outlet. The inlet of the chamber was connected to an air pump and the outlet was connected by polyethylene tubing which contains boric acid and indicator solution to trap ammonia gas (Ahmed et al., 2006a; Ahmed et al., 2006b). Air was passed through the chamber at the rate of 3.5/L/min/chamber. This rate of air flow was maintained throughout the incubation period using a Gilmont flow meter to measure and adjust the air flow when necessary. The released ammonia captured in a trapping solution which contains 75 mL of boric acid with bromocresol green and methyl red indicator was titrated with 0.1 M HCl to estimate the amount of NH3 (g) released. The entire incubation was conducted at room temperature. The boric acid indicator which was used to capture ammonia was replaced every 24 h during incubation for 13 days, a period when ammonia loss was less than 1% (Ahmed et al., 2006a, 2006b). After 13 days of incubation, soil samples were analyzed for pH, exchangeable ammonium and available nitrate. Soil pH was determined by the method previously stated. The method of Keeney and Nelson (1982) was used to extract soil exchangeable ammonium and available nitrate followed by steam distillation. The experimental design was a completely randomized design with three replicates for each treatment. Analysis of variance was used to test treatment effects and means of treatments were compared using Duncan's test (SAS version 9.2).

NC(N)=O [Treatment T1, urea]
NH4^−N (soil exchangeable ammonium) ([1]; at 13 days of incubation): 78.09^b ppm | NO3^−N (soil available nitrate) ([1]; at 13 days of incubation): 22.80^b ppm | Ammonia loss ([1]; total over 13 days of incubation, 250 g soil): 42.87^a % | NH4^−N (soil exchangeable ammonium) ([2]; at 13 days of incubation): 85.80^c ppm | NO3^−N (soil available nitrate) ([2]; at 13 days of incubation): 4.30^b ppm | soil pH (water) ([2]; at 13 days of incubation): 7.68^a | Ammonia loss ([2]; total over 13 days of incubation): 41.50^a %
